# The other results are listed elsewhere or left out.
# B1: PhypaEULS3 (Physcomitrella patens) (protein)
# chain: MLPVRLHCKADPNFNLAAVPGQGPVMVPFSPNDDFQVWYKDVTMSTRVKDETGSSAFSLINKATGQALRHAPEDLAQCLLADYDSNALDQTVLWTMSEDMGQGYCCIRLASQITRNLDVFRGDKKSGGVKEGSPVITFAWKKQDNQIWKMITAILEQKLISEEDLNSAVDHHHHHH
# Tests used:
# Test in all cases: glycan array binding signal (z-score within array); higher = stronger binding
# Conditions in all cases: glycan notation: IUPAC condensed, linker removed
# [1] = biological target: Neu5Ac(a2-3)Gal(b1-4)GlcNAc(b1-6)GalNAc
# How it was run: (§1)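 Glycan array data were curated from 3228 arrays in the Consortium for Functional Glycomics database and kept only where the protein sequence was available. Glycan names were converted to IUPAC-condensed notation, and columns mapping to the same glycan were averaged. The binding signal is a within-array Z-score, averaged across arrays of the same protein sequence at different concentrations or buffers and across linkers. Negative Z-scores can be read as non-binding.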
# [2] = biological target: Neu5Ac(a2-3)Gal(b1-4)GlcNAc(b1-6)[Gal(b1-3)]GalNAc
# How it was run: as §1
# [3] = biological target: Neu5Ac(a2-3)Gal(b1-4)GlcNAc(b1-6)[Neu5Ac(a2-3)Gal(b1-3)]GalNAc
# How it was run: as §1
# [4] = biological target: Neu5Ac(a2-3)Gal(b1-4)GlcNAc6S
# How it was run: as §1
# [5] = biological target: Neu5Ac(a2-3)Gal(b1-4)[Fuc(a1-3)]GlcNAc
# How it was run: as §1
# [6] = biological target: Neu5Ac(a2-3)Gal(b1-4)[Fuc(a1-3)]GlcNAc(b1-2)Man
# How it was run: as §1
# [7] = biological target: Neu5Ac(a2-3)Gal(b1-4)[Fuc(a1-3)]GlcNAc(b1-3)Gal
# How it was run: as §1
# [8] = biological target: Neu5Ac(a2-3)Gal(b1-4)[Fuc(a1-3)]GlcNAc(b1-3)Gal(b1-4)GlcNAc
# How it was run: as §1
# [9] = biological target: Neu5Ac(a2-3)Gal(b1-4)[Fuc(a1-3)]GlcNAc(b1-3)Gal(b1-4)[Fuc(a1-3)]GlcNAc(b1-3)Gal(b1-4)[Fuc(a1-3)]GlcNAc
# How it was run: as §1
# [10] = biological target: Neu5Ac(a2-3)Gal(b1-4)[Fuc(a1-3)]GlcNAc(b1-3)GalNAc
# How it was run: as §1
# [11] = biological target: Neu5Ac(a2-3)Gal(b1-4)[Fuc(a1-3)]GlcNAc(b1-6)[Gal(b1-3)]GalNAc
# How it was run: as §1
# [12] = biological target: Neu5Ac(a2-3)Gal(b1-4)[Fuc(a1-3)]GlcNAc(b1-6)[Neu5Ac(a2-3)Gal(b1-3)]GalNAc
# How it was run: as §1
# [13] = biological target: Neu5Ac(a2-3)Gal(b1-4)[Fuc(a1-3)]GlcNAc6S
# How it was run: as §1
# [14] = biological target: Neu5Ac(a2-3)Gal6S(b1-4)GlcNAc
# How it was run: as §1
# [15] = biological target: Neu5Ac(a2-3)Gal6S(b1-4)[Fuc(a1-3)]GlcNAc
# How it was run: as §1
# [16] = biological target: Neu5Ac(a2-3)GalNAc
# How it was run: as §1
# [17] = biological target: Neu5Ac(a2-3)GalNAc(b1-4)GlcNAc
# How it was run: as §1
# [18] = biological target: Neu5Ac(a2-3)[GalNAc(b1-4)]Gal(b1-4)Glc
# How it was run: as §1
# [19] = biological target: Neu5Ac(a2-3)[GalNAc(b1-4)]Gal(b1-4)GlcNAc
# How it was run: as §1
# [20] = biological target: Neu5Ac(a2-3)[GalNAc(b1-4)]Gal(b1-4)GlcNAc(b1-3)GalNAc
# How it was run: as §1
# [21] = biological target: Neu5Ac(a2-3)[Neu5Ac(a2-6)]GalNAc
# How it was run: as §1
# [22] = biological target: Neu5Ac(a2-6)Gal
# How it was run: as §1
# [23] = biological target: Neu5Ac(a2-6)Gal(b1-3)GlcNAc(b1-3)[Gal(b1-4)GlcNAc(b1-6)]Gal(b1-4)Glc
# How it was run: as §1
# [24] = biological target: Neu5Ac(a2-6)Gal(b1-4)Glc
# How it was run: as §1
# [25] = biological target: Neu5Ac(a2-6)Gal(b1-4)GlcNAc
# How it was run: as §1
# [26] = biological target: Neu5Ac(a2-6)Gal(b1-4)GlcNAc(b1-2)Man
# How it was run: as §1
# [27] = biological target: Neu5Ac(a2-6)Gal(b1-4)GlcNAc(b1-2)Man(a1-3)Man(b1-4)GlcNAc(b1-4)GlcNAc
# How it was run: as §1
# [28] = biological target: Neu5Ac(a2-6)Gal(b1-4)GlcNAc(b1-2)Man(a1-3)[Gal(b1-4)GlcNAc(b1-2)Man(a1-6)]Man(b1-4)GlcNAc(b1-4)GlcNAc
# How it was run: as §1
# [29] = biological target: Neu5Ac(a2-6)Gal(b1-4)GlcNAc(b1-2)Man(a1-3)[GlcNAc(b1-2)Man(a1-6)]Man(b1-4)GlcNAc(b1-4)GlcNAc
# How it was run: as §1
# [30] = biological target: Neu5Ac(a2-6)Gal(b1-4)GlcNAc(b1-2)Man(a1-3)[GlcNAc(b1-4)][Neu5Ac(a2-6)Gal(b1-4)GlcNAc(b1-2)Man(a1-6)]Man(b1-4)GlcNAc(b1-4)GlcNAc
# How it was run: as §1
# [31] = biological target: Neu5Ac(a2-6)Gal(b1-4)GlcNAc(b1-2)Man(a1-3)[Man(a1-6)]Man(b1-4)GlcNAc(b1-4)GlcNAc
# How it was run: as §1
# [32] = biological target: Neu5Ac(a2-6)Gal(b1-4)GlcNAc(b1-2)Man(a1-3)[Neu5Ac(a2-3)Gal(b1-4)GlcNAc(b1-2)Man(a1-6)]Man(b1-4)GlcNAc(b1-4)GlcNAc
# How it was run: as §1
# [33] = biological target: Neu5Ac(a2-6)Gal(b1-4)GlcNAc(b1-2)Man(a1-3)[Neu5Ac(a2-6)Gal(b1-4)GlcNAc(b1-2)Man(a1-6)]Man(b1-4)GlcNAc(b1-4)GlcNAc
# How it was run: as §1
# [34] = biological target: Neu5Ac(a2-6)Gal(b1-4)GlcNAc(b1-2)Man(a1-3)[Neu5Ac(a2-6)Gal(b1-4)GlcNAc(b1-2)Man(a1-6)]Man(b1-4)GlcNAc(b1-4)[Fuc(a1-6)]GlcNAc
# How it was run: as §1
# [35] = biological target: Neu5Ac(a2-6)Gal(b1-4)GlcNAc(b1-2)Man(a1-6)Man(b1-4)GlcNAc(b1-4)GlcNAc
# How it was run: as §1
# [36] = biological target: Neu5Ac(a2-6)Gal(b1-4)GlcNAc(b1-2)Man(a1-6)[Gal(b1-4)GlcNAc(b1-2)Man(a1-3)]Man(b1-4)GlcNAc(b1-4)GlcNAc
# How it was run: as §1
# [37] = biological target: Neu5Ac(a2-6)Gal(b1-4)GlcNAc(b1-2)Man(a1-6)[GlcNAc(b1-2)Man(a1-3)]Man(b1-4)GlcNAc(b1-4)GlcNAc
# How it was run: as §1
# [38] = biological target: Neu5Ac(a2-6)Gal(b1-4)GlcNAc(b1-2)Man(a1-6)[Man(a1-3)]Man(b1-4)GlcNAc(b1-4)GlcNAc
# How it was run: as §1
# [39] = biological target: Neu5Ac(a2-6)Gal(b1-4)GlcNAc(b1-2)[Neu5Ac(a2-6)Gal(b1-4)GlcNAc(b1-4)]Man(a1-3)[GlcNAc(b1-4)][Neu5Ac(a2-6)Gal(b1-4)GlcNAc(b1-2)[Neu5Ac(a2-6)Gal(b1-4)GlcNAc(b1-6)]Man(a1-6)]Man(b1-4)GlcNAc(b1-4)GlcNAc
# How it was run: as §1
# [40] = biological target: Neu5Ac(a2-6)Gal(b1-4)GlcNAc(b1-2)[Neu5Ac(a2-6)Gal(b1-4)GlcNAc(b1-4)]Man(a1-3)[GlcNAc(b1-4)][Neu5Ac(a2-6)Gal(b1-4)GlcNAc(b1-4)Man(a1-6)]Man(b1-4)GlcNAc(b1-4)GlcNAc
# How it was run: as §1
# [41] = biological target: Neu5Ac(a2-6)Gal(b1-4)GlcNAc(b1-2)[Neu5Ac(a2-6)Gal(b1-4)GlcNAc(b1-6)]Man(a1-6)[Neu5Ac(a2-6)Gal(b1-4)GlcNAc(b1-2)Man(a1-3)][GlcNAc(b1-4)]Man(b1-4)GlcNAc(b1-4)GlcNAc
# How it was run: as §1
# [42] = biological target: Neu5Ac(a2-6)Gal(b1-4)GlcNAc(b1-3)Gal(b1-3)GlcNAc
# How it was run: as §1
# [43] = biological target: Neu5Ac(a2-6)Gal(b1-4)GlcNAc(b1-3)Gal(b1-4)GlcNAc
# How it was run: as §1
# [44] = biological target: Neu5Ac(a2-6)Gal(b1-4)GlcNAc(b1-3)Gal(b1-4)GlcNAc(b1-2)Man(a1-3)[Neu5Ac(a2-6)Gal(b1-4)GlcNAc(b1-3)Gal(b1-4)GlcNAc(b1-2)Man(a1-6)]GalNAc
# How it was run: as §1
# [45] = biological target: Neu5Ac(a2-6)Gal(b1-4)GlcNAc(b1-3)Gal(b1-4)GlcNAc(b1-3)Gal(b1-4)GlcNAc
# How it was run: as §1
binder,measurement,setting,value
B1,glycan array binding signal (z-score),[1],2.29
same,glycan array binding signal (z-score),[2],-0.182
same,glycan array binding signal (z-score),[3],-1.46
same,glycan array binding signal (z-score),[4],0.173
same,glycan array binding signal (z-score),[5],-0.111
same,glycan array binding signal (z-score),[6],-0.007
same,glycan array binding signal (z-score),[7],0.859
same,glycan array binding signal (z-score),[8],0.271
same,glycan array binding signal (z-score),[9],-0.844
same,glycan array binding signal (z-score),[10],-0.169
same,glycan array binding signal (z-score),[11],-0.413
same,glycan array binding signal (z-score),[12],-1.52
same,glycan array binding signal (z-score),[13],0.773
same,glycan array binding signal (z-score),[14],0.303
same,glycan array binding signal (z-score),[15],-0.823
same,glycan array binding signal (z-score),[16],-0.098
same,glycan array binding signal (z-score),[17],0.953
same,glycan array binding signal (z-score),[18],-0.823
same,glycan array binding signal (z-score),[19],-0.772
same,glycan array binding signal (z-score),[20],1.57
same,glycan array binding signal (z-score),[21],1.16
same,glycan array binding signal (z-score),[22],-1.6
same,glycan array binding signal (z-score),[23],-1.4
same,glycan array binding signal (z-score),[24],-0.824
same,glycan array binding signal (z-score),[25],0.116
same,glycan array binding signal (z-score),[26],0.666
same,glycan array binding signal (z-score),[27],-1.21
same,glycan array binding signal (z-score),[28],0.533
same,glycan array binding signal (z-score),[29],0.429
same,glycan array binding signal (z-score),[30],-0.107
same,glycan array binding signal (z-score),[31],-0.436
same,glycan array binding signal (z-score),[32],-0.311
same,glycan array binding signal (z-score),[33],0.126
same,glycan array binding signal (z-score),[34],0.118
same,glycan array binding signal (z-score),[35],-0.203
same,glycan array binding signal (z-score),[36],-0.035
same,glycan array binding signal (z-score),[37],0.801
same,glycan array binding signal (z-score),[38],-0.347
same,glycan array binding signal (z-score),[39],0.449
same,glycan array binding signal (z-score),[40],1.38
same,glycan array binding signal (z-score),[41],0.337
same,glycan array binding signal (z-score),[42],0.4
same,glycan array binding signal (z-score),[43],-0.193
same,glycan array binding signal (z-score),[44],-0.046
same,glycan array binding signal (z-score),[45],0.398

# Reformatted with bars between the fields: part of the list above
binder | measurement | setting | value
B1 | glycan array binding signal (z-score) | [18] | -0.823
same | glycan array binding signal (z-score) | [19] | -0.772

# — the supplement of paper PMC8728848
